## Library screen at single concentrations

Sequences of proteins named here, by UniProt entry; tags and fusion partners are left off.
UniProt P9WFT3, whole entry: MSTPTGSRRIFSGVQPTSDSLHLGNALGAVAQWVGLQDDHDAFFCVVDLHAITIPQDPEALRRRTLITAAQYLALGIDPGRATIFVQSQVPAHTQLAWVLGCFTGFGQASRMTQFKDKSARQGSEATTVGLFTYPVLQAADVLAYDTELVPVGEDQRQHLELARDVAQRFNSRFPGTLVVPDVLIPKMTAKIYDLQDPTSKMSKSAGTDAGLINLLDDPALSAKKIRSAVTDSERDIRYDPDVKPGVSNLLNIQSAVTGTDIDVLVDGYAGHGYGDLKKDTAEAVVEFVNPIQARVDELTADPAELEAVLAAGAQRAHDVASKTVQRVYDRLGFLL

Data taken from ChEMBL document CHEMBL3988442, “University of Dundee, Small-Polar-MMV Screening Library” (2021).

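Tryptophan-tRNA ligase, Mycobacterium tuberculosis (UniProt P9WFT3). Enzyme assay of tryptophanyl-tRNA synthetase; the read-out is not stated. Tested at 10 µM. Direction is not recorded; retested compounds ran higher, which suggests that high means inhibition. Size under these conditions: about 65,000 compounds, about 64 of them at 50% or above in at least one test.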

The filed quantity is “Percent Effect” (%). How 0% and 100% were set is not recorded. Most values in the screen are low, and negative values occur. This is an unselected part of the compounds tested.

compound | effect
Cn1cc(CN2CCCC23CCN(c2nc4ccccc4s2)CC3)cn1 | -4.6%
NC(=O)C1CCN(CCc2ccc(NCc3ccoc3)cc2)CC1 | -2.812%
CC(C)N1CC2(CCCN(c3ccnc4ccccc34)C2)CCC1=O (centres undefined) | 2.074%
Nc1nc(NCCc2[nH]nc3c2CCCC3)cc(N2CCOCC2)n1 | 0.6387%
CCCn1nnnc1COc1cc(OC)ccc1C(N)=O | 1.039%
O=C(c1ccccc1-n1cccn1)N1CCCN(c2cccnn2)CC1 | 3.049%
O=C1NCC2=C1C(c1ccccc1)Nc1ccccc1N2 (centres undefined) | -5.861%
Cn1cnc(S(=O)(=O)NCCCN2CCCCCC2)c1Cl | 2.426%
Cc1nc(-c2cccc(N3CCC(N4CCCC(C#N)C4)CC3)c2)cs1 (centres undefined) | -0.5708%
CN(C(=O)NC1CC1)C1CCN(c2ccc(Cl)cc2)CC1 | 2.065%
c1ccc(CO[C@H]2CO[C@@]3(CCCN(Cc4cccnc4)C3)C2)nc1 | 4.841%
Cc1cc(N(C)CC2COc3ccccc3O2)nc(C)n1 (centres undefined) | -2.709%
COc1c(CNCc2cccc(CS(C)(=O)=O)c2)c(C)nn1C | 1.8%
Cc1cc(-c2cc(N)c(=O)n(CC(=O)NC3CCCCC3)n2)c(C)o1 | -4.354%
CN1C(=O)c2ccc(NC(=O)CSc3ccc4c(c3)CCC4)cc2C1=O | -1.144%
CCC1CN(C)c2ccccc2CN1C(=O)Nc1ccc(C)cc1 (centres undefined) | 4.717%
Cc1cc(C)n(CC2CCCN2Cc2cccc(C#N)c2)n1 (centres undefined) | -1.847%
CC[C@]12CN3C[C@](CC)(CN(C1)C3c1[nH]c(=O)[nH]c(=O)c1C)C2=O (some centres undefined) | 0.8223%
CN(C)[C@@H]1CCN(c2ncc(F)cn2)[C@H]1Cc1cccnc1 | 0.6506%
CC(C)N1CCOC(Cc2nn3c(Cc4ccccc4)nnc3s2)C1 (centres undefined) | -1.731%
c1ccc(CCN2CCN(C3CCOC4(CCOCC4)C3)CC2)nc1 (centres undefined) | 3.366%
O=C(CCC(=O)N1CCC(Oc2ncccc2Br)CC1)c1ccccc1 | -1.715%
COC(=O)CCCNC(=O)COc1ccccc1C(F)(F)F | -3.979%
Cc1nc([C@@H]2C[C@H]3CN(Cc4ccc5c(c4)OCO5)C[C@H]3O2)no1 | -7.604%
Cn1cc(CN2CCC[C@]3(C(=O)O)CN(c4cnccn4)CC[C@@H]23)cn1 | -4.931%
CN(C)c1ncccc1CNC(=O)NCc1ccco1 | 3.396%
Cc1cc(C(F)(F)F)nn1CC(C)C(=O)Nc1ccncc1 (centres undefined) | 3.819%
CCNC(=O)[C@@H]1C[C@H](NC(=O)c2cncnc2C)CN1CCCSC | -0.08224%
Cc1ncc2c(n1)CN(Cc1nnc(Cc3ccccc3)o1)CC2 | 6.706%
CCC[C@@H]1CN(Cc2ccc(N(C)C)nc2)C[C@H]1N(C)C | -4.925%
Cc1ccc(CN2CC[C@@H]3[C@@H](CO[C@H]3CN3CCN(C)CC3)C2)s1 | 6.624%
CC(NCc1ccccc1Cl)c1ccc(OCC(=O)NC2CC2)cc1 (centres undefined) | -4.728%
CNC(=O)C(C)CNC(=O)c1coc(COc2cccc(F)c2F)n1 (centres undefined) | -2.835%
O=C(CCn1cnc2cc(F)c(F)cc21)N1CCN2CCCCC2C1 (centres undefined) | -2.656%
CC(=O)N1CCC(Cc2cnc(-c3c(C)nn(C)c3C)cn2)CC1 | -1.483%
CCC(=O)NCCc1cc2nc(-c3ccncc3)ccn2n1 | 1.762%
Cc1n[nH]c(C)c1NC(=O)CN1CCCC1c1noc(C2CC2)n1 (centres undefined) | -1.655%
CC(c1cccnc1)N(C)Cc1cc(O)c2cc(F)ccc2n1 (centres undefined) | -0.9288%
CC(C(=O)N(C)C)N1CCCN(C(=O)Oc2ccccc2)CC1 (centres undefined) | 3.627%
O=C(c1ccccc1-c1nnn[nH]1)N1CCOC(C(F)(F)F)C1 (centres undefined) | -0.8256%
CC(C)(C)c1noc(CN2CCCC(CNS(N)(=O)=O)C2)n1 (centres undefined) | -1.867%
Cc1nc(CN2CCc3ncnc(-c4cccnc4)c3CC2)cs1 | 11.34%
Cc1cccc(CN2CCn3c(C(=O)N(C)C)cnc3C2)c1 | 6.724%
Cc1nccn1CCC1CCCCN1Cc1ccc(O)cc1Cl (centres undefined) | -0.2425%
CCOCC1CN(C(=O)c2cnoc2C)Cc2cn(C)nc21 (centres undefined) | -2.481%
Cc1nc(C2CCCN(C(=O)c3cccc4c3OCCO4)C2)no1 (centres undefined) | -6.006%
Cn1cccc1C(=O)N1C[C@@H](OCc2ccncc2)[C@@H]2OCCC[C@@H]21 | 4.426%
Cn1nccc1C(=O)N1CCCN(CCCc2ccccc2)CC1 | 2.02%
CC(CNC(=O)c1cc(Cl)ccc1F)N1CCCC1 (centres undefined) | -4.388%
CC(=O)N1[C@H](CN(C)C)C[C@@H]2CN(C(=O)c3cccn3C)CC[C@@H]21 | -8.285%
Cc1ncc(CN2CCC3(CC2)CC(=O)N(C)C3)cn1 | -1.544%
CN(CC1(C)COC1)C(=O)c1cc(-c2ccn(C)n2)nc2ccccc12 | 8.594%
COCC(=O)N1CCC2(CC1)CN(c1ccccn1)CCO2 | 4.507%
Cc1cncc(NC(=O)c2ccc(CN3CCCC(C(N)=O)C3)cc2)c1 (centres undefined) | 8.118%
O=C(NCc1ccc(CN2CCCC2)cc1)NCc1ccon1 | -5.583%
Fc1cccc(-c2noc3c2CN(Cc2cncn2C2CC2)CC3)c1 | -0.161%
CCNc1cc2c(nn1)CCN(C(=O)c1ccnc(-n3ccnc3)c1)C2 | -8.977%
Cc1nc(C)n(CC2CCCN2c2ncnc3c2CCC3)n1 (centres undefined) | -1.65%
O=C(CCCNC(=O)Nc1ccc(F)cc1)Nc1cn[nH]c1 | -2.341%

The first 4 entries again:

* Cn1cc(CN2CCCC23CCN(c2nc4ccccc4s2)CC3)cn1 | -4.6%
* NC(=O)C1CCN(CCc2ccc(NCc3ccoc3)cc2)CC1 | -2.812%
* CC(C)N1CC2(CCCN(c3ccnc4ccccc34)C2)CCC1=O (centres undefined) | 2.074%
* Nc1nc(NCCc2[nH]nc3c2CCCC3)cc(N2CCOCC2)n1 | 0.6387%